# Data as given in PubChem BioAssay AID2685 (National Center for Advancing Translational Sciences (NCATS), 2010).
# The other results are listed elsewhere or left out. These are further read-outs of the screen, such as a control signal, another cell line or another target. No call is given for them. Most of these compounds were active or inconclusive in the main read-out, so they are no random draw. Words in brackets tell the shape of the fitted curve; partial curves, single points and poor fits give uncertain potencies.
# Test: qHTS Assay for Lipid Storage Modulators in Drosophila S3 Cells;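 for cell number change: cells counted by Cell Tracker Red CMTPX staining in the red channel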
# Conditions: BODIPY lipid droplet fluorescence, 18-24 h; for cell number change: measured here: cell count max response, cells fed with added oleic acid
# Procedure, shortened: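 Laser-scanning cytometry quantifies lipid droplet accumulation (500–530 nm total intensity; droplet/cell object ratio) in oleic acid-fed (400 uM added) Drosophila S3 cells treated with a concentration series. 20 uM Triacsin C defined 100% inhibition.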
# [1] = measured here: lipid fluorescence (Fed channel) AC50, cells fed with added oleic acid
# [2] = measured here: cell number channel AC50, cells fed with added oleic acid
SMILES,cell number change,AC50 [1],AC50 [2]
O=C(NCCNc1ccc(Cl)cc1[N+](=O)[O-])c1cccnc1,-31.6%,–,–
O=[N+]([O-])c1cccc(NC(=S)NCCc2ccccc2)c1,-27%,"20.6 µM [falling, single point]",–
CCNc1nc(NC(C)C)nc(OCC)n1,5.7%,"4.61 µM [falling, single point]","0.517 µM [rising, single point]"
COC(=O)c1ccc(C)c(NC(=O)C2CC(=O)N(C3CCCC(C)C3C)C2)c1 (centres undefined),-13%,"29.1 µM [falling, single point]",–
CSc1ccccc1OCc1cc(C(=O)NCCn2ccnc2C)no1,28.2%,"29.1 µM [rising, single point]","0.651 µM [rising, full curve, poor fit]"
Cc1ccc(-c2nc3ccccc3s2)cc1NC(=S)NC(=O)c1cccc2ccccc12,6.3%,"29.1 µM [rising, single point]","6.51 µM [rising, single point]"
Cc1cccc(NC(=O)CCN2C(=O)c3ccccc3C2=O)c1,-27.8%,–,–
Cc1noc(C)c1C(=O)NCC1COc2ccccc2O1 (centres undefined),-5.24%,–,"0.0461 µM [falling, full curve, poor fit]"
CC(=O)Nc1nc2cc(C(N)=O)ccc2s1,-3.5%,–,–
COc1cc(NC(=O)CSc2nnc(-c3ccncc3)n2C2CCCCC2)ccc1NC(=O)c1ccco1,–,"0.00461 µM [rising, full curve, poor fit]","0.651 µM [rising, single point]"
Cn1nc(C(=O)NNC(=O)c2ccc(Cl)cc2)ccc1=O,-29.7%,–,–
O=C(Nc1ccn(Cc2ccccc2F)n1)c1ccc(COc2ccc(Cl)cc2Cl)o1,-21.1%,"29.1 µM [falling, single point]",–
Cc1ccc(O)c(C(=O)c2cnn(-c3ccccc3)c2)c1,27.6%,–,–
COc1ccc(CN(C)C(=O)c2ccc(OCC(=O)N3CCOCC3)c(OC)c2)cc1,-3.48%,"2.59 µM [rising, partial curve, poor fit]",–
Cc1cc(N2CCCCC2)nc2ccc(NC(=O)c3ccc(Br)o3)cc12,17.1%,"1.03 µM [rising, partial curve]","1.03 µM [rising, full curve, poor fit]"
COc1ccc2c(c1)OC[C@H]1[C@H]2N2C(=O)[C@H](C)NC(=O)[C@@]2(C)[C@H]1c1ccccc1,-11.2%,–,–
O=C(CCNC(=O)c1ccccc1Cl)NN1C(=O)NC2(CCCCC2)C1=O,-50%,–,"0.731 µM [falling, partial curve, poor fit]"
C=CCn1c(CSc2nc3ccccc3s2)nnc1SCC(=O)NCc1ccccc1,-70.8%,"4.11 µM [falling, full curve]","5.17 µM [falling, full curve]"
COc1ccc(/C=C/C(=O)Nc2cc(C(F)(F)F)ccc2Cl)cc1OC,-13.6%,"16.4 µM [falling, single point]",–
CCOc1cccc(-c2cc(C(=O)N/N=C/c3ccc(OC)c(CN4CCOCC4)c3)c3ccccc3n2)c1,10.1%,"2.31 µM [falling, partial curve]",–

SMILES,cell number change,AC50 [1],AC50 [2]
COc1ccc(NC(=S)NCCc2c[nH]c3ccccc23)cc1,7.15%,–,–
Cc1ccc(S(=O)(=O)N2CCN(CC(=O)N/N=C/c3ccc(Br)s3)CC2)cc1,-15.5%,–,–
CCOc1ccc(OCCC(=O)OCC(=O)Nc2ccc(N3CCOCC3)cc2)cc1,17.5%,"5.8 µM [falling, single point]",–
O=C(CSc1ccsc1[N+](=O)[O-])Nc1cccc(F)c1,17.2%,–,–
Cc1ccc(C)c(OCCC(=O)OCC(=O)NC2CCCC2)c1,-0.22%,"1.3 µM [rising, full curve, poor fit]",–
Clc1ccccc1-c1nn2c(-c3ccncc3)nnc2s1,–,"0.291 µM [rising, partial curve, poor fit]",–
COc1ccc2oc(C(=O)N3CCN(C/C=C/c4ccccc4)CC3)c(C)c2c1,-18.8%,–,–
COc1ccc(CCNCCN2CCOCC2)cc1,13.5%,"3.66 µM [rising, single point]",–
C=C(C)Cn1c(=O)c2c(nc3n2CCCN3Cc2ccccc2)n(C)c1=O,22.7%,"0.58 µM [rising, full curve, poor fit]",–
CCn1nnc(NC(=O)CSc2ccc(Cl)cc2)n1,-2.32%,"0.116 µM [rising, full curve, poor fit]",–
Cc1ccc(N(C(=O)CNC(=O)c2ccco2)C(C(=O)NC2CCCCC2)c2cccnc2)c(C)c1 (centres undefined),-5.22%,"0.58 µM [falling, single point]",–
OCCN1CCN(CCCc2c3c(cc4c2CCC4)CCC3)CC1,-26%,"29.1 µM [falling, single point]",–
CN(Cc1cccc(C(F)(F)F)c1)C(=O)C1CCC(=O)N(CC2CCCCC2)C1 (centres undefined),-14.3%,"29.1 µM [falling, single point]",–
COc1ccccc1NC(=O)c1cnc(SCC(=O)NCCc2ccccc2)n(C)c1=O,-15.8%,–,–
OC(COc1ccc(Br)cc1)CN1CCN(c2ccccc2)CC1 (centres undefined),14.4%,"0.058 µM [rising, full curve]",–
CC(C)C(=O)Nc1ccc2c(c1)C(=O)N(CCC(=O)O)C2=O,10.5%,"0.0103 µM [falling, full curve]",–
O=C(NC(=S)Nc1cc(-c2nc3ccccc3[nH]2)ccc1Cl)c1ccc2c(c1)OCO2,14.8%,"1.84 µM [rising, partial curve]",–
O=C(/C=C/c1cccs1)NCc1ccc2c(c1)OCO2,22.3%,"29.1 µM [falling, single point]",–
COc1ccccc1CN=Cc1[nH]c2ccc(Br)c(Cl)c2c1O,–,"11.6 µM [rising, partial curve]","3.66 µM [rising, partial curve, poor fit]"
Cc1ccn2c(Nc3ccccc3C)c(-c3ccccn3)nc2c1,-54.4%,"20.6 µM [falling, single point]","29.1 µM [falling, single point]"

SMILES,cell number change,AC50 [1],AC50 [2]
Cc1ccccc1NC(=S)/C(=C(\[O-])c1ccc(C)c([N+](=O)[O-])c1)[n+]1ccccc1,–,"6.51 µM [falling, single point]",–
O=C(NC12CC3CC(CC(C3)C1)C2)N1CCN(C(=O)C2CCCO2)CC1 (centres undefined),-113%,"20.6 µM [falling, partial curve]","16.4 µM [falling, partial curve]"
CCOP(=O)(O)c1ccccc1OCCCCCOc1ccccc1P(=O)(O)OCC,22.5%,"32.6 µM [rising, partial curve, poor fit]",–
Cn1nc(-c2ccc(N3CCOCC3)c(NS(=O)(=O)c3ccccc3)c2)c2ccccc2c1=O,236%,"2.06 µM [rising, partial curve]","1.16 µM [rising, full curve]"
COc1ccc(C(CC(=O)Nc2ccccc2OC)n2cccc2)cc1 (centres undefined),19.2%,"13 µM [rising, partial curve, poor fit]",–
CCSc1nnc(NC(=O)c2csc(C)c2)s1,0.703%,–,–
O=C(CSc1nnc(-c2ccccn2)n1Cc1ccccc1)Nc1ccc2c(c1)OCO2,-0.359%,"1.46 µM [rising, full curve]",–
O=C(CSc1nnc(-c2ccncc2)n1-c1ccc(Cl)cc1)NCc1cccs1,-19.5%,"1.46 µM [falling, partial curve, poor fit]",–
Cc1cc(C(C)(C)C)c(OC(=O)[C@@H]2OC(c3ccccc3)=C[C@H]2c2ccccc2)c(C(C)(C)C)c1,-22.1%,"6.51 µM [falling, single point]",–
CS(=O)(=O)N(CC(=O)NCc1ccccc1Cl)c1cccc([N+](=O)[O-])c1,-24.6%,"0.00461 µM [falling, full curve, poor fit]","0.00461 µM [falling, full curve, poor fit]"
Cc1ccc2nc(/C(C#N)=C\c3ccc(Oc4ccc([N+](=O)[O-])cn4)cc3)[nH]c2c1,22.5%,–,"6.51 µM [falling, partial curve, poor fit]"
C/C(=N\Nc1ccccc1Cl)c1ccc(-n2ccnc2)cc1,-11.1%,"0.13 µM [rising, full curve, poor fit]",–
COc1ccc(NC(=S)NN(C)C(=S)Nc2ccc(OC)cc2)cc1,1.68%,"6.51 µM [rising, single point]","6.51 µM [rising, single point]"
COc1ccc(-n2c(C)cc(C(=O)CCl)c2C)cc1,–,"32.6 µM [falling, partial curve, poor fit]",–
CCCn1c2ccc(C)cc2c2n[nH]c(=S)nc21,24.7%,"11.6 µM [rising, partial curve, poor fit]",–
O=C(c1cnn2c(C(F)(F)F)cc(-c3ccccc3)nc12)N1CCOCC1,-26.8%,"0.13 µM [falling, full curve]","0.517 µM [falling, full curve]"
COc1ccc(CNC(=O)C2CCCN(S(=O)(=O)c3ccccc3)C2)cc1 (centres undefined),8.01%,"29.1 µM [rising, single point]",–
O=C(CSc1nc2ccccc2[nH]1)NCc1ccco1,0.337%,–,–
CC(Sc1nncn1C)C(=O)Nc1nnc(C(C)C)s1 (centres undefined),–,–,"6.51 µM [falling, single point]"
O=C(CN(C(=O)CCC(=O)Nc1ccccn1)c1cccc(F)c1)NCc1ccco1,-6.67%,"29.1 µM [falling, single point]",–

# Record cards, as listed above. Values in the order: cell number change	AC50 [1]	AC50 [2]
# C=CCn1c(CSc2nc3ccccc3s2)nnc1SCC(=O)NCc1ccccc1 in the list: -70.8%	4.11 µM [falling, full curve]	5.17 µM [falling, full curve]
# O=C(c1cnn2c(C(F)(F)F)cc(-c3ccccc3)nc12)N1CCOCC1 in the list: -26.8%	0.13 µM [falling, full curve]	0.517 µM [falling, full curve]
